Results are given in words; binding and its absence hold for the method and conditions named. In cells and extracts the contact can be indirect. Some binding calls cover weakened binding; strength is not graded here.
Tests used:
[1] = target: Glutamate Ionotropic Receptor NMDA Type Subunit 2B (GluN2B), mouse (mouse (endogenous in dorsal striatum)) (UniProt Q01097); experiment: proximity ligation
[2] = target: full length Tropomyosin related kinase receptor B (TrkB-FL), mouse (mouse (endogenous in dorsal striatum)) (UniProt P15209); experiment: co-IP

Sequences of proteins named here, by UniProt entry; tags and fusion partners are left off. Residues count along the entry.
UniProt Q01097, residues 27-1482: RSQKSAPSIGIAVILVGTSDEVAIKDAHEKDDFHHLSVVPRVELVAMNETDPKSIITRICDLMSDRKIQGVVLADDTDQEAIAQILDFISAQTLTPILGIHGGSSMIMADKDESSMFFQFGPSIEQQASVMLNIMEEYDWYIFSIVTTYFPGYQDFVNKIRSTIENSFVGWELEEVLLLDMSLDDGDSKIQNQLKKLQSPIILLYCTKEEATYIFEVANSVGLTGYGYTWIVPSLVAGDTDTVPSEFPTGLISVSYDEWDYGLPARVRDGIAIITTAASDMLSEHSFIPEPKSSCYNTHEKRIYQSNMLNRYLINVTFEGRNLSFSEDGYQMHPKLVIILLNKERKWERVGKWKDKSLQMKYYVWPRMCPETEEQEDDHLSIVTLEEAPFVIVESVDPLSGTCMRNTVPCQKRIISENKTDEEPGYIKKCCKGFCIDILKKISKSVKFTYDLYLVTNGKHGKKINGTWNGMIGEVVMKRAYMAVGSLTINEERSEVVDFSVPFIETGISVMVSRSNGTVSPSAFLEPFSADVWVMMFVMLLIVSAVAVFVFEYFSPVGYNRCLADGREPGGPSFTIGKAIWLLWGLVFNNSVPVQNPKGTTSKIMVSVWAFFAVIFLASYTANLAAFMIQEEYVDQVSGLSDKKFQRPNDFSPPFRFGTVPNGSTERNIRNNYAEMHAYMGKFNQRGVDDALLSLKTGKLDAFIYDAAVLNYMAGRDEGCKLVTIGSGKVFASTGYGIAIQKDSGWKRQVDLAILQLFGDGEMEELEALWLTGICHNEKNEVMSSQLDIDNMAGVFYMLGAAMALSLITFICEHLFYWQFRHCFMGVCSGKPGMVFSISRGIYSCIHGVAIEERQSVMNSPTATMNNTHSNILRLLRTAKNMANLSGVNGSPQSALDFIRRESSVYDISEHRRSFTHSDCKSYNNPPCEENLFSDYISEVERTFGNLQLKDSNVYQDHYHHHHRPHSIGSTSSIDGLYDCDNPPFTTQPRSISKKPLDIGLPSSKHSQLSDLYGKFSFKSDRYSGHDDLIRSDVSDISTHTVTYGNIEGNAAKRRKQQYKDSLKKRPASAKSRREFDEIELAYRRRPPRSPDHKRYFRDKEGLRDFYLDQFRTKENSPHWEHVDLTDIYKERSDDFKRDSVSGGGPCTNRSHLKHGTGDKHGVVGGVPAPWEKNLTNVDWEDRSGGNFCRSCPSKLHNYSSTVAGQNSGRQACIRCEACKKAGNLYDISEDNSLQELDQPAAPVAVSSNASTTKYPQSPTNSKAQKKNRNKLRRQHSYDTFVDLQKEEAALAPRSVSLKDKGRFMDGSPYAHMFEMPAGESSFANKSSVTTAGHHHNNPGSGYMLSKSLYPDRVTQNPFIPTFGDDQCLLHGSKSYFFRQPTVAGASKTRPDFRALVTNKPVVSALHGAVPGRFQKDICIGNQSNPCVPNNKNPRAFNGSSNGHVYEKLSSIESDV
UniProt P15209, residues 32-821: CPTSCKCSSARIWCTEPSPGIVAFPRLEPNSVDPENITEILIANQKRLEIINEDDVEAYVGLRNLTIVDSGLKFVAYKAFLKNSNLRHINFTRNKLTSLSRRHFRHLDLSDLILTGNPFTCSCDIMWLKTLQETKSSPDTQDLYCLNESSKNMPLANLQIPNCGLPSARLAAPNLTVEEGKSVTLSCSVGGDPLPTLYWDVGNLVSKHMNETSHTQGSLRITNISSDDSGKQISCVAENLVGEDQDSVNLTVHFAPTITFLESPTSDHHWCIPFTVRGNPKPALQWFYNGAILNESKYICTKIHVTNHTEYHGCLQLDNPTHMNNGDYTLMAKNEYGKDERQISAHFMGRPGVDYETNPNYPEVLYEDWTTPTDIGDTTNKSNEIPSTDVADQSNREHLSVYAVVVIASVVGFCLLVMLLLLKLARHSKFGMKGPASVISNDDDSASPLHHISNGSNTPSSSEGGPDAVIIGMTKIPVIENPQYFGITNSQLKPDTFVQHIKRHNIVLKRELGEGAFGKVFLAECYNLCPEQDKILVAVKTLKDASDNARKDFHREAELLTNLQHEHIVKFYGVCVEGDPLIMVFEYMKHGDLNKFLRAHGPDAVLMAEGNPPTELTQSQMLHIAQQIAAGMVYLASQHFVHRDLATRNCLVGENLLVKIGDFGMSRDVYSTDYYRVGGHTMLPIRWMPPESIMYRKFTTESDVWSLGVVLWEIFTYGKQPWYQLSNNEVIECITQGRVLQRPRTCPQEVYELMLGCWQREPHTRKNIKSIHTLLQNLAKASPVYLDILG
UniProt Q9EPR5, residues 50-1159: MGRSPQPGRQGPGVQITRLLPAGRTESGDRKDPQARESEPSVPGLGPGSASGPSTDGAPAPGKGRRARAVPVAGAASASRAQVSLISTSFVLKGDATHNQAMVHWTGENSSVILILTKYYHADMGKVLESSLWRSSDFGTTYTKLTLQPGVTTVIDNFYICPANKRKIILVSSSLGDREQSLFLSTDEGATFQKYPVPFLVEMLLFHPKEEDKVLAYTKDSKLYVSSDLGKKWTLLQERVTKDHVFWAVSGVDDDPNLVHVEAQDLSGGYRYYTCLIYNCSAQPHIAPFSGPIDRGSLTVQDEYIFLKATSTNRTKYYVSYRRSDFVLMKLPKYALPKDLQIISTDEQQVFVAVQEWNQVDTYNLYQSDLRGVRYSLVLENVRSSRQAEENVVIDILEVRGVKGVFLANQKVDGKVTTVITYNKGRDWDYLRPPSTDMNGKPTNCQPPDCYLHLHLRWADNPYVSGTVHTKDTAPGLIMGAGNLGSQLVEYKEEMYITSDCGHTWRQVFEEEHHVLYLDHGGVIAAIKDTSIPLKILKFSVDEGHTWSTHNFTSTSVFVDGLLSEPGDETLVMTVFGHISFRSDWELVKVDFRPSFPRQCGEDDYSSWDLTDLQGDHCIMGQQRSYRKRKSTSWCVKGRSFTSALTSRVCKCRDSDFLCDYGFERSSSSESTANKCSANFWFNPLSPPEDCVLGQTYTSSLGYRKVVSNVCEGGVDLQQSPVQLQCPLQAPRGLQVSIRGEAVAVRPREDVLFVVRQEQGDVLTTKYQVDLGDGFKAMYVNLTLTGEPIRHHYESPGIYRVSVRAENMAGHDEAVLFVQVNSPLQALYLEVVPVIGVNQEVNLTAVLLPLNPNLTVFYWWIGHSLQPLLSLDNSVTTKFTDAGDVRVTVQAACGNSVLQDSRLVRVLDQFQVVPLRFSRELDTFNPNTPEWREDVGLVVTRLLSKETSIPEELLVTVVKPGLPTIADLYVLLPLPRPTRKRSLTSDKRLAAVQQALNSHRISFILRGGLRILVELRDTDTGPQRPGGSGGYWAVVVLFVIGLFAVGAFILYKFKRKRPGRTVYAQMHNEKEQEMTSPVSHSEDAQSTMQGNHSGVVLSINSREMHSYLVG

With “Sortilin Related VPS10 Domain Containing Receptor 2 (SorCS2), mouse (from UniProt Q9EPR5 50-1159)” the binding [1] was “binds” and the binding [2] was “binds”.

Source: doi:10.1101/2021.11.03.466767
